The nature of the test: qHTS Assay for Lipid Storage Modulators in Drosophila S3 Cells.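 As to cell number change: cells counted by Cell Tracker Red CMTPX staining in the red channel.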 The settings on record: BODIPY lipid droplet fluorescence, 18-24 h; for cell number change: measured here: cell count max response, cells fed with added oleic acid. An outline of the steps:
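Laser-scanning cytometry quantifies lipid droplet accumulation (500–530 nm total intensity; droplet/cell object ratio) in oleic acid-fed (400 uM added) Drosophila S3 cells treated with a concentration series. 20 uM Triacsin C defined 100% inhibition.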

Setting [1] is: measured here: cell number channel AC50, cells fed with added oleic acid.
Where [2] appears, read: measured here: lipid fluorescence (Fed channel) AC50, cells fed with added oleic acid.

This is one part of the list. Further columns of the screen follow, without active or inactive calls. The list favours compounds with an active or inconclusive main result. Potencies come from curve fits of mixed quality, noted in brackets.

For `CSc1ccccc1NS(=O)(=O)c1ccc2c(c1)OCCO2`, the cell number change worked out at 43.8%. Also, the AC50 under setting [1] was 6.51 µM [falling, single point]. In addition, the AC50 under setting [2] is 6.51 µM [falling, single point].

`COc1cc(/C=C2\C(=O)NN(c3ccc(C)cc3)C2=O)cc([N+](=O)[O-])c1O`: the cell number change was -5.78%.

As for `Cc1ccsc1/C=N/NC(=O)c1cccnc1`, under setting [2], the AC50 is 7.31 µM [rising, full curve, poor fit].

In the case of `COc1ccc(N2CCN(C(=O)CNC(=O)c3ccco3)CC2)cc1`, the cell number change amounted to 17.2%. Moreover, under setting [2], the AC50 was 29.1 µM [rising, single point].

`Cc1cccc(C)c1Nc1nnc(SCC(=O)c2ccc(Br)s2)s1`: the cell number change was found to be 13.4%. Under setting [1], the half-maximal activity concentration (AC50) was 0.146 µM [rising, full curve, poor fit].

For `CN(CC(=O)O)c1ccc(C(F)(F)F)cc1[N+](=O)[O-]`, the cell number change is -40.9%. Further, the AC50 under setting [1] is 6.51 µM [falling, single point].

For `Nc1nnc(SCC(=O)Nc2cccc(S(=O)(=O)N3CCCCC3)c2)s1`, the cell number change was -8.9%. Further, the concentration at half-maximal activity (AC50) under setting [2] was 18.4 µM [rising, single point].

As to `Cc1ccc(OCCN2CCN(c3ncnc4sc(C)c(C)c34)CC2)cc1`, the cell number change was -33.3%. Moreover, the half-maximal activity concentration (AC50) under setting [1] is 32.6 µM [falling, single point].

Consider `COC(=O)c1sc(NC(=O)COc2ccc(C)cc2)nc1C`, for which the cell number change turned out to be 148%. Besides, under setting [1], the concentration at half-maximal activity (AC50) was 8.2 µM [rising, partial curve]. The AC50 under setting [2] is 2.06 µM [rising, partial curve].

As for `CC1CCN(C(=O)c2[nH]cnc2C(=O)Nc2ccon2)CC1`, the cell number change worked out at 2.59%.

Take `O=C(NC1CC1)c1ccc2c(c1)S(=O)(=O)c1cc(Cl)ccc1C2=O`: the cell number change came to 8.78%. In addition, the AC50 under setting [2] was 6.51 µM [falling, single point].

As for `CCSc1nc(C2CC2)cc(-c2cccs2)c1C#N`, the cell number change was found to be 66.6%. The concentration at half-maximal activity (AC50) under setting [1] was 13 µM [rising, partial curve]. Further, the AC50 under setting [2] is 6.51 µM [rising, single point].

As for `CC(NS(=O)(=O)c1cccc(Cl)c1)C(=O)N(C)C1CCN(C)CC1` (centres undefined), the cell number change is -9.47%. The AC50 under setting [1] is 0.116 µM [falling, single point].

Regarding `CCC(C)(C)NC(=O)CN(C(=O)CCC(=O)Nc1ccccn1)c1ccc2c(c1)OCO2`, the cell number change stood at 4.78%.

In the case of `NS(=O)(=O)OCCCCCc1ccccc1`, the cell number change was 22.3%. Under setting [2], the AC50 was 29.1 µM [rising, single point].

Consider `COC(=O)c1c(NC(=O)c2c(C)noc2C)sc2c1CCCCCC2`, for which the cell number change was -9.6%.

Consider `CCN(CC)c1cc(C)c(C#N)c2nc3ccccc3n12`, for which the cell number change came to 3.04%.

On to `O=C(NCc1ccc(C(=O)O)cc1)OCc1ccccc1`, for which the cell number change is 14.8%. The AC50 under setting [2] was 0.00461 µM [rising, full curve, poor fit].

As to `COc1ccc(N2C(=O)c3ccccc3NC2c2ccc(OC)c(Cn3cc([N+](=O)[O-])cn3)c2)cc1` (centres undefined), the cell number change stood at 7.19%. The AC50 under setting [2] is 10.3 µM [rising, partial curve].

Regarding `Cc1cc(C)c(NC(=O)CNC(=O)COC(=O)Cc2ccccc2C)c(C)c1`, the cell number change was 30.7%. For the same molecule, the AC50 under setting [1] was 29.1 µM [rising, single point]. The concentration at half-maximal activity (AC50) under setting [2] was 29.1 µM [rising, single point].

For the molecule `Cn1c(Sc2ccccc2Cl)c(C=O)c2ccccc21`, the cell number change is -28.6%. Also, the half-maximal activity concentration (AC50) under setting [2] is 29.1 µM [falling, single point].

For the molecule `CSc1cccc(NC(=O)CN(C2CCCCC2)S(C)(=O)=O)c1`, the cell number change was 5.81%. In addition, the half-maximal activity concentration (AC50) under setting [2] is 16.4 µM [rising, single point].

Consider `COc1ccc(CNCC(=O)Nc2sccc2C#N)cc1`, for which the cell number change came to 12.4%. Also, the AC50 under setting [2] was 4.11 µM [falling, single point].

Take `Cc1ccnc(NC(=O)c2cccc(S(=O)(=O)N3CCN(c4ccc(F)cc4)CC3)c2)c1`: the cell number change is 16.8%. In addition, the concentration at half-maximal activity (AC50) under setting [2] is 8.2 µM [rising, partial curve].

On to `CC(C)c1ccccc1NC(=S)N1CCN(S(=O)(=O)c2cccs2)CC1`, for which the concentration at half-maximal activity (AC50) under setting [1] was 0.00461 µM [falling, full curve, poor fit].

On to `COC(=O)CNC(=O)CN1c2cccc3cccc(c23)S1(=O)=O`, for which the cell number change was -6.7%.

With `O=C1CCCC/C1=C/NCc1ccc(F)cc1`, the cell number change stood at 14.6%. For the same molecule, the AC50 under setting [2] is 0.517 µM [falling, single point].

Consider `CC1CCC/C(=N\NC(=O)c2ccncc2)C1` (centres undefined), for which the cell number change was -13.8%. For the same molecule, the half-maximal activity concentration (AC50) under setting [2] is 32.6 µM [falling, partial curve, poor fit].

`COC(=O)c1ccc(CNC(=O)COC(=O)C2CCC(C(C)(C)C)CC2)cc1` (centres undefined): the cell number change is 5.71%. Besides, under setting [1], the AC50 is 0.116 µM [rising, full curve, poor fit]. Further, the concentration at half-maximal activity (AC50) under setting [2] was 0.651 µM [rising, full curve].

As to `CC(=O)Nc1cc(C(=O)OCC(=O)c2ccc(C)cc2)ccc1C`, the cell number change came out at 12.4%. The concentration at half-maximal activity (AC50) under setting [2] was 0.651 µM [rising, partial curve].

On to `COc1ccc(CNC(=O)CN(C(=O)c2csnn2)c2ccc(C(C)=O)cc2)cc1`, for which the cell number change is -1.28%. The AC50 under setting [2] is 6.51 µM [rising, partial curve].

As to `O=C(Nc1ccc(Cl)cc1)Nc1ccccn1`, the cell number change is -19.8%. Besides, the concentration at half-maximal activity (AC50) under setting [2] is 6.51 µM [falling, single point].

On to `O=C(O)c1ccccc1SCC(=O)N1CCc2ccccc21`, for which the cell number change is -107%.

On to `O=C(Cn1nnc2ccccc2c1=O)Nc1ccc(S(=O)(=O)N2CCOCC2)cc1`, for which the AC50 under setting [1] was 0.164 µM [falling, full curve].

For the molecule `O=C(NC1CC1)C1CCN(C(=O)c2ccc(Cl)cc2)CC1`, the cell number change is 16.4%.

For `CS(=O)(=O)c1ccc(Cl)c(NC(=O)COC(=O)c2ccc(-n3cnnn3)cc2)c1`, the cell number change is -31%. For the same molecule, the AC50 under setting [1] was 18.4 µM [falling, single point]. Moreover, under setting [2], the AC50 is 29.1 µM [falling, single point].

Regarding `Cc1cccc(Oc2cc(NC(=O)c3ccccc3)cc([N+](=O)[O-])c2)c1`, the cell number change was 11%.

Regarding `Cc1ccc(CSCC2Nc3ccc(C(=O)N4CCN(c5ccc(F)cc5)CC4)cc3NC2=O)cc1` (centres undefined), the cell number change is -1.83%.

Take `O=C(CNC(=O)c1ccco1)NCC(=O)OCc1ccccc1Cl`: the cell number change was -2.63%. The AC50 under setting [2] is 2.51 µM [falling, partial curve].

As for `O=C(Nc1ccc(Cl)cn1)c1ccc(COc2ccccc2Br)o1`, the cell number change is -4.44%. In addition, the concentration at half-maximal activity (AC50) under setting [1] was 0.731 µM [rising, single point]. Moreover, under setting [2], the AC50 is 0.461 µM [rising, full curve, poor fit].

As to `CC(=O)N1N=C(c2ccccc2)CC1c1ccc2c(c1)OCO2` (centres undefined), the cell number change amounted to 8.66%. In addition, the AC50 under setting [2] is 1.46 µM [rising, full curve, poor fit].

As for `Cc1cc2nnc(SCCCCN3C(=O)c4ccccc4C3=O)n2c2ccccc12`, under setting [2], the AC50 was 29.1 µM [rising, single point].

Consider `Cc1cc(-c2csc(Nc3ccccn3)n2)ccc1F`, for which the cell number change was -14.5%.

On to `Cc1nc([N+](=O)[O-])cn1CC(=O)c1ccc(Br)cc1`, for which the cell number change stood at 12.5%. Moreover, under setting [2], the AC50 is 6.51 µM [rising, partial curve, poor fit].

Consider `CCOC(=O)c1c(NC(=O)C2C3C=CC(C3)C2C(=O)O)sc2c1CCC(CC)C2` (centres undefined), for which the cell number change was -33.6%. Besides, under setting [1], the AC50 is 25.9 µM [falling, single point].

As for `CCOC(=O)c1cc(-c2ccc(C)o2)n[nH]1`, the cell number change came out at 18.6%.

For the molecule `CCN(CC)C(=O)N1c2ccccc2C=Cc2ccccc21`, the AC50 under setting [1] was 1.46 µM [falling, partial curve].

As to `Nc1c(NCCN2CCOCC2)c2ccccc2oc1=O`, the cell number change was found to be 23.6%.

As to `Cc1ccc(OCC(=O)Nc2cc(C(C)(C)C)on2)cc1C`, the cell number change was 18.4%. Besides, the AC50 under setting [2] was 18.4 µM [falling, single point].

In the case of `O=C(CNc1cccc2ccccc12)N/N=C/c1ccc[nH]1`, the cell number change was found to be 10.6%. For the same molecule, under setting [1], the AC50 was 1.84 µM [rising, single point]. For the same molecule, the AC50 under setting [2] was 4.11 µM [rising, partial curve].

`COc1cccc(OC)c1C(=O)NC(C)CCc1ccccc1` (centres undefined): the cell number change is -1.82%.

For `CN(C)CCn1c2c(c(SCC(=O)Nc3ccc4c(c3)OCCO4)nc1=O)CCCC2`, the concentration at half-maximal activity (AC50) under setting [1] was 0.116 µM [falling, full curve, poor fit].

Turning to `O=C(OCC(=O)N1CCN(C(=O)c2ccco2)CC1)c1cc(-c2ccccc2)nc2ccccc12`, the cell number change was -27.8%. Moreover, the AC50 under setting [1] was 3.26 µM [falling, full curve, poor fit]. For the same molecule, the AC50 under setting [2] was 29.1 µM [falling, single point].

As for `CCS(=O)(=O)c1ncc(Cl)c(C(=O)Nc2ccc(S(=O)(=O)N3CCCC(C)C3)cc2)n1` (centres undefined), the concentration at half-maximal activity (AC50) under setting [2] is 0.082 µM [falling, full curve, poor fit].

In the case of `Cc1cc(N2CCN(Cc3cn(C)nc3-c3ccccc3F)CC2)cc(C)n1`, the cell number change is -10.1%.

For the molecule `COc1cc(OC)cc(C(=O)NCC(=O)N2CCCCC2)c1`, the cell number change was -11.1%.

As for `CCOc1ccc2[nH]c3nc(SCC(=O)OC(C)C)nnc3c2c1`, the cell number change is -26.5%. Under setting [2], the half-maximal activity concentration (AC50) was 0.58 µM [falling, partial curve, poor fit].

Turning to `CC(C)(C)C(=O)NC(NC(=O)C(C)(C)C)c1ccc([N+](=O)[O-])cc1`, the AC50 reads like this: under setting [1], 2.31 µM [rising, partial curve]; under setting [2], 1.64 µM [rising, single point].

Regarding `O=C(N/N=C/c1cc(Cl)ccc1O)c1ccncc1`, the cell number change is -1.75%. Also, the AC50 under setting [2] was 0.146 µM [rising, full curve, poor fit].

Consider `CS(=O)(=O)c1ccc2nc(NC(=O)C3C4C=CC(C4)C3C(=O)O)sc2c1` (centres undefined), for which the AC50 under setting [1] is 6.51 µM [rising, single point].

As for `COc1ccc(CC(=O)OCC(=O)NC(=O)NC23CC4CC(CC(C4)C2)C3)cc1`, the cell number change is -77.1%. For the same molecule, the concentration at half-maximal activity (AC50) under setting [1] is 14.6 µM [falling, partial curve, poor fit]. Under setting [2], the half-maximal activity concentration (AC50) is 0.411 µM [falling, full curve].

Take `CCCOc1ccc(/C(O)=C2/C(=O)C(=O)N(CCN(C)C)C2c2ccc(OC)c(OC)c2)cc1` (centres undefined): the cell number change was -5.7%. Under setting [2], the AC50 was 14.6 µM [falling, partial curve, poor fit].

Regarding `CCc1nc(SCC(=O)Nc2ccc(Br)cn2)n[nH]1`, the cell number change is 18.8%. For the same molecule, the AC50 under setting [2] is 1.84 µM [rising, single point].

For the molecule `CCn1c(=O)cc(SCC(=O)Nc2cccnc2)c2ccccc21`, the AC50 is 0.103 µM [rising, full curve, poor fit] under setting [1] and 0.092 µM [rising, full curve, poor fit] under setting [2].

The record behind these values is PubChem BioAssay AID2685 (National Center for Advancing Translational Sciences (NCATS), 2010).
